{
  "source": "PubChem BioAssay AID540276",
  "about": "(National Center for Advancing Translational Sciences (NCATS), 2011)",
  "note": "Values joined by “and” are separate entries in the source; they are usually repeats but may differ in a detail not shown here. Identical values can stand only once. In all, about 300,000 compounds went through this assay and about 5,400 (1.8%) were called active. The inconclusive results got no clear call from the source; some entries with a clear call stand among them for comparison. Calls follow the shape of the full dose curve; tested in HEK293 cells. A potency beside an inconclusive call is a rough fit, not a confirmed value.",
  "data": [
    {"experiment": "qHTS for inhibitors of binding or entry into cells for Marburg Virus; also: potency is read from the fitted curve at half-maximal effect; as to activity change, negative = inhibition: % is scaled to controls: 0 for no effect and ±100 for the full control effect", "details": "Marburg virus pseudotyped entry inhibition, cell reporter; activity change, negative = inhibition: at 37.8 µM (top of the series) unless noted", "values": [
      {"compound": "CCOc1cc2c3c(c1)C1(C(=O)N3C(C)(C)C=C2C)C(C#N)=C(N)Oc2cc(O)ccc21", "note": "(stereo not drawn)", "activity change, negative = inhibition": "inactive: -0.361%"},
      {"compound": "COc1ccccc1CC(Cc1nc2ccccc2[nH]1)c1nc2ccccc2[nH]1", "note": "(stereo not drawn)", "Potency": "inconclusive: 23.1 µM [inhibitor, single point]"},
      {"compound": "CCCCCNC(=O)c1ccc2c(=O)n(CCCN3CCCC3=O)c(=S)[nH]c2c1", "Potency": "inconclusive: 5.62 µM [inhibitor, single point]"},
      {"compound": "O=C(C=C1SCCS1)/C=C/c1ccco1", "Potency": "inconclusive: 7.94 µM [inhibitor, partial curve, poor fit]"},
      {"compound": "Cc1c(C(=O)OCc2nc3scc(-c4ccccc4)c3c(=O)[nH]2)cccc1[N+](=O)[O-]", "Potency": "inconclusive: 35.5 µM [inhibitor, single point]"},
      {"compound": "COC(=O)C(Cc1ccc(OC(=O)c2ccccc2C)cc1)N1Cc2ccccc2C1=O", "note": "(stereo not drawn)", "Potency": "inconclusive: 35.5 µM [activator, single point]"},
      {"compound": "CC(C)(C)c1ccc(-c2noc(CNC(=O)c3ccco3)n2)cc1", "Potency": "inconclusive: 20 µM [inhibitor, single point]"},
      {"compound": "COc1ccc(-n2cc(C(=O)c3cc4ccccc4oc3=O)c(C(C)=O)n2)cc1", "activity change, negative = inhibition": "inactive: 8.12%"},
      {"compound": "CCCC(=O)NC(=S)Nc1cccc(Cl)c1N1CCCC1", "Potency": "inconclusive: 11.2 µM [inhibitor, partial curve, poor fit]"},
      {"compound": "CC(C)(C)c1ccc(C(=O)N2CCCCC2CCN2CCCCC2)cc1", "note": "(stereo not drawn)", "Potency": "inconclusive: 1 µM [activator, partial curve, poor fit]"},
      {"compound": "CC1CCCN(c2ccc(C(=O)Nc3ccc4c(c3)OCO4)cc2[N+](=O)[O-])C1", "note": "(stereo not drawn)", "Potency": "inconclusive: 10 µM [inhibitor, single point]"},
      {"compound": "COC(=O)c1cc(NC(=O)Cn2nc(-c3ccc(C)c(C)c3)ccc2=O)cc(C(=O)OC)c1", "activity change, negative = inhibition": "inactive: -17.8% [at 46.1 µM]"},
      {"compound": "CCC(C)NC(=O)C1=CC(c2ccc3c(c2)OCO3)=NS(=O)(=O)N1C", "note": "(stereo not drawn)", "Potency": "inconclusive: 6.31 µM [inhibitor, single point]"},
      {"compound": "O=C(O)c1ccc(-c2nc(-c3ccccc3)c(-c3cccs3)[nH]2)cc1", "activity change, negative = inhibition": "inactive: 11.2% [at 46.1 µM]"},
      {"compound": "Cc1cnc(C(=O)Nc2ccc(F)cc2)cn1", "Potency": "inconclusive: 0.651 µM [activator, full curve, poor fit]"},
      {"compound": "COc1ccc(C2=NCc3nnc(C)n3-c3ccc(Cl)cc32)cc1Cl", "Potency": "inconclusive: 35.5 µM [inhibitor, single point]"},
      {"compound": "O=c1[nH]c(=O)n(C2CC(O)C(CO)O2)cc1I", "note": "(stereo not drawn)", "activity change, negative = inhibition": "inactive: 19.1%"},
      {"compound": "COc1ccc(NS(=O)(=O)c2ccc(N3CCOCC3)c(NC(=O)c3ccc(F)cc3)c2)cc1", "Potency": "active: 3.55 µM"},
      {"compound": "Cc1cccc(CSCCNC(=O)CSCc2ccc([N+](=O)[O-])cc2)c1", "Potency": "inconclusive: 10 µM [inhibitor, partial curve, poor fit]"},
      {"compound": "O=C(CC1S/C(=N/N=C/c2cccs2)NC1=O)Nc1ccccc1F", "note": "(stereo not drawn)", "activity change, negative = inhibition": "inactive: -29.9%"},
      {"compound": "O=C1CC(c2ccco2)CC(O)=C1C=NCC1CCNCC1", "note": "(stereo not drawn)", "Potency": "inconclusive: 1.26 µM [activator, partial curve, poor fit]"},
      {"compound": "COc1ccc(NC(=S)N/C(=N/CS(=O)(=O)c2ccccc2)c2ccccc2)cc1", "activity change, negative = inhibition": "inactive: 18.6%"},
      {"compound": "O=C(Nc1ccc(Br)cc1F)N1CCC2(CC1)Oc1ccccc1C(=O)N2Cc1ccccc1F", "activity change, negative = inhibition": "inactive: 0.311% [at 46.1 µM]"},
      {"compound": "O=C(C1CC1)N1CCN(c2ccc([N+](=O)[O-])cc2-n2cccc2)CC1", "Potency": "inconclusive: 1 µM [inhibitor, full curve, poor fit]"},
      {"compound": "CCN(c1ccccc1)c1nnc(NC(=O)Nc2ccc(Br)cc2F)s1", "Potency": "inconclusive: 5.62 µM [inhibitor, full curve]"},
      {"compound": "COc1ccc(-c2csc(NC(=O)CSc3nnc(Nc4ccccc4C)s3)n2)cc1", "Potency": "inconclusive: 12.6 µM [inhibitor, partial curve, poor fit]"},
      {"compound": "Cc1cccc(-c2nsc(SCC(=O)N3CCCC3)n2)c1", "Potency": "inconclusive: 0.92 µM [activator, full curve]"},
      {"compound": "NS(=O)(=O)c1ccc(CCNC(c2ccccc2)c2ccccc2)cc1", "Potency": "inconclusive: 25.1 µM [inhibitor, single point]"},
      {"compound": "COc1cccc(CNCc2cccc(Br)c2)c1OC", "activity change, negative = inhibition": "inactive: -14.6% [at 46.1 µM]"},
      {"compound": "O=C(Nc1ccccc1)/C(=C/c1ccc([N+](=O)[O-])cc1)NC(=O)c1ccccc1", "Potency": "inconclusive: 1.26 µM [inhibitor, single point]"},
      {"compound": "Clc1nc(NC2CCCC2)nc(N2CCOCC2)n1", "Potency": "inconclusive: 0.891 µM [inhibitor, full curve, poor fit]"},
      {"compound": "CNc1ccc2oc(C[C@H]3O[C@@]4(CC[C@H]3C)O[C@H]([C@H](C)C(=O)c3ccc[nH]3)[C@H](C)C[C@H]4C)nc2c1C(=O)O", "Potency": "active: 708 nM and active: 2.91 µM"},
      {"compound": "COc1ccc(OC)c(C2=NOC(C(=O)Nc3cc(C)nn3-c3ccccc3)C2)c1", "note": "(stereo not drawn)", "Potency": "inactive"},
      {"compound": "CCOC(=O)C1=C(C)NC(=S)NC1c1ccc(OCC(=O)N2CCCCC2)cc1", "note": "(stereo not drawn)", "Potency": "inactive"},
      {"compound": "Cc1c(Cc2ccccc2)c(=O)oc2cc(OCc3ccc(C(=O)O)cc3)ccc12", "activity change, negative = inhibition": "inactive: 22.6% [at 46.1 µM]"},
      {"compound": "COc1ccc(S(=O)(=O)N2CCSC2)cc1C", "Potency": "inconclusive: 0.0891 µM [inhibitor, full curve, poor fit]"},
      {"compound": "CCC(CC)N1CCN(C(=O)c2cccc(Cl)c2)CC1", "Potency": "inconclusive: 2.82 µM [inhibitor, single point]"},
      {"compound": "CC(CCCN1CCCC1)Nc1ccnc2cc(Cl)ccc12", "note": "(stereo not drawn)", "Potency": "active: 3.55 µM"},
      {"compound": "OCC1CCCN(C(=S)Nc2ccc(Nc3ccccc3)cc2)C1", "note": "(stereo not drawn)", "Potency": "inconclusive: 6.31 µM [activator, partial curve, poor fit]"},
      {"compound": "Cc1sc(NC(=O)C2CCCO2)c(C#N)c1C", "note": "(stereo not drawn)", "Potency": "inconclusive: 29.1 µM [activator, single point]"},
      {"compound": "COc1ccc(-c2nnc3c4ccccc4c(C)nn23)cc1", "activity change, negative = inhibition": "inactive: 26.3%"},
      {"compound": "N#Cc1c(NC(=O)CSc2ncn[nH]2)sc2c1CCCC2", "Potency": "inconclusive: 0.411 µM [inhibitor, full curve, poor fit]"},
      {"compound": "CCC(=O)N1CCc2cc(S(=O)(=O)Nc3ccc4c(c3)OCCO4)ccc21", "Potency": "active: 7.94 µM"},
      {"compound": "CN(C)C(=O)c1ccc2c(c1[N+](=O)[O-])C(=O)c1ccccc1C2=O", "Potency": "inconclusive: 11.2 µM [inhibitor, single point]"},
      {"compound": "CN(C1CCCCC1)S(=O)(=O)c1ccc2c(c1)c(=O)c(C(=O)N1CCN(c3ccccc3F)CC1)cn2C", "Potency": "inconclusive: 2.82 µM [activator, full curve]"},
      {"compound": "CCCCCCC(=O)NNC(=O)CC(=O)Nc1ccccc1C(=O)O", "Potency": "inconclusive: 35.5 µM [activator, partial curve, poor fit]"},
      {"compound": "CCc1ccc(-c2ccc3nnc(SCC(=O)NCC4CCCO4)n3n2)cc1", "note": "(stereo not drawn)", "activity change, negative = inhibition": "inactive: -17.2% [at 46.1 µM]"},
      {"compound": "O=C(CN1CCN(S(=O)(=O)/C=C/c2ccccc2)CC1)Nc1ccccc1N1CCOCC1", "activity change, negative = inhibition": "inactive: -24.4%"},
      {"compound": "CCOc1ccc(C(=O)N2CCC(c3noc(-c4ccc(S(=O)(=O)N5CCCC5)cc4)n3)CC2)cc1", "Potency": "inconclusive: 25.1 µM [inhibitor, partial curve, poor fit]"},
      {"compound": "Cc1ccc(OCCn2nnc3sc4c(c3c2=O)CCC(C)C4)cc1", "note": "(stereo not drawn)", "Potency": "inconclusive: 3.55 µM [inhibitor, single point]"},
      {"compound": "COc1ccccc1NS(=O)(=O)c1cc(NC(C)=O)ccc1N1CCCCC1", "Potency": "inconclusive: 11.2 µM [inhibitor, single point]"},
      {"compound": "O=C(CSc1nnc(-c2ccc([N+](=O)[O-])cc2)o1)Nc1ccccc1", "Potency": "inconclusive: 5.62 µM [activator, single point]"},
      {"compound": "COc1ccc(-c2nc(S(=O)(=O)c3ccc(C)cc3)c(N3CCCC3)o2)cc1", "Potency": "inconclusive: 2.82 µM [inhibitor, single point]"},
      {"compound": "CC(C)(c1ccccc1)c1ccc(OCCCN2CCNCC2)cc1", "Potency": "inconclusive: 7.08 µM [inhibitor, partial curve, poor fit]"},
      {"compound": "CCOc1ccc(-n2nc3cc(C)c(NC(=O)c4cc(OCC)c(OCC)c(OCC)c4)cc3n2)cc1", "activity change, negative = inhibition": "inactive: -1.7% [at 46.1 µM]"},
      {"compound": "Cc1c(CCOC(=O)C23CC4(C)CC(C)(CC(C)(C4)C2)C3)sc[n+]1CC(=O)c1ccccc1", "Potency": "inconclusive: 35.5 µM [inhibitor, single point]"},
      {"compound": "COc1cccc(CN(C(=O)c2cccs2)C2CCS(=O)(=O)C2)c1", "note": "(stereo not drawn)", "activity change, negative = inhibition": "inactive: 2.55% [at 46.1 µM]"},
      {"compound": "O=S(=O)(Nc1ccccc1N1CCOCC1)c1ccc(F)c(Cl)c1", "Potency": "inconclusive: 35.5 µM [inhibitor, single point]"},
      {"compound": "CCOC(=O)CSc1nc(C)c2cc(C)c(C)cc2n1", "activity change, negative = inhibition": "inactive: -14.1% [at 46.1 µM]"},
      {"compound": "COc1ccc(-c2nnc3sc(-c4c(OC)cccc4OC)nn23)cc1", "activity change, negative = inhibition": "inactive: -1.64%"},
      {"compound": "COc1ccc(OC)c(C(=O)/C=C/c2ccccc2C(F)(F)F)c1", "Potency": "inconclusive: 29.1 µM [inhibitor, single point]"},
      {"compound": "COc1ccc(-c2csc3ncnc(N4CCN(c5cccc(Cl)c5)CC4)c23)cc1", "Potency": "inconclusive: 11.2 µM [inhibitor, single point]"},
      {"compound": "COCc1cc(OC(=O)N(C)C)nc(-c2ccccc2)n1", "Potency": "inconclusive: 1 µM [inhibitor, full curve, poor fit]"},
      {"compound": "CCOC(=O)N1CCN(C(=O)Cc2c(C(=O)O)n(C)c3ccccc23)CC1", "activity change, negative = inhibition": "inactive: 7.56% [at 46.1 µM]"},
      {"compound": "Cc1c(N2C(=O)S[C@H](CC(=O)O)C2=O)c(=O)n(-c2ccccc2)n1C", "activity change, negative = inhibition": "inactive: 11.7%"},
      {"compound": "Cc1ccc(S(=O)(=O)Nc2cc(Cl)c(O)c3ncccc23)cc1", "Potency": "inconclusive: 22.4 µM [inhibitor, partial curve, poor fit]"},
      {"compound": "CCCc1ccc(-c2cc(NC(=O)CSc3nnc(N)s3)n(-c3ccccc3)n2)cc1", "Potency": "inconclusive: 35.5 µM [inhibitor, single point]"},
      {"compound": "O=C(NCC(O)c1ccccc1)c1ccc(Cl)c(S(=O)(=O)N2CCCCC2)c1", "note": "(stereo not drawn)", "activity change, negative = inhibition": "inactive: -22.2% [at 46.1 µM]"}
    ]}
  ]
}
